Results deposited as PubChem BioAssay AID1224830 (NIAID, 2016)
This is an unselected part of about 18,000 reagents tested. About 2,900 of all reagents (16%) were called active. 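Calls are made per well; low scores hint the gene aids the LPS response, high scores that it dampens it.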 Entries without a mark were called inactive. Repeated entries: four replicate wells of each siRNA pool.

- Purpose: 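Regulators of TLR4 signalling towards TNF-alpha in macrophage-like cells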 (primary screen)
- Cells: human THP-1 monocytic leukaemia cells, TNF dual-luciferase reporter clone, PMA-differentiated to macrophage-like cells
- Reagent: siRNA pool against human genes, 50 nM
- Duration: LPS for 4 h, given about 3 days after siRNA transfection
- Challenge: bacterial LPS (TLR4 ligand), 10 ng/ml
- Measured: 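TNF firefly reporter luminescence divided by renilla, normalised to the plate median, then turned into a robust z-score for each replicate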
- Reading the numbers: TNF reporter robust z-score: higher = stronger TNF reporter response to LPS
- Active means: 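Each well counts as active if its z-score is over 2.8 or under -1.5; controls are left without a call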

Target gene | TNF reporter robust z-score
DCP1A (decapping mRNA 1A) | 1.33
DCP1A (decapping mRNA 1A) | 2.66
DCP1A (decapping mRNA 1A) | 1.35
DCP1A (decapping mRNA 1A) | 1.34
SCN5A (sodium voltage-gated channel alpha subunit 5) | -1.03
SCN5A (sodium voltage-gated channel alpha subunit 5) | -0.65
SCN5A (sodium voltage-gated channel alpha subunit 5) | -0.58
SCN5A (sodium voltage-gated channel alpha subunit 5) | -0.5
GGPS1 (geranylgeranyl diphosphate synthase 1) | 0.07
GGPS1 (geranylgeranyl diphosphate synthase 1) | 1.38
GGPS1 (geranylgeranyl diphosphate synthase 1) | 0.21
GGPS1 (geranylgeranyl diphosphate synthase 1) | 0.2
MAST2 (microtubule associated serine/threonine kinase 2) | 1.25
MAST2 (microtubule associated serine/threonine kinase 2) | 1.08
MAST2 (microtubule associated serine/threonine kinase 2) | -1.04
MAST2 (microtubule associated serine/threonine kinase 2) | -0.93
OR2G3 (olfactory receptor family 2 subfamily G member 3) | 0.75
OR2G3 (olfactory receptor family 2 subfamily G member 3) | 0.44
OR2G3 (olfactory receptor family 2 subfamily G member 3) | 0
OR2G3 (olfactory receptor family 2 subfamily G member 3) | 1.19
FOXD4L6 (forkhead box D4 like 6) | 0.64
FOXD4L6 (forkhead box D4 like 6) | 2.05
FOXD4L6 (forkhead box D4 like 6) | 0.05
FOXD4L6 (forkhead box D4 like 6) | 0.01
CHSY1 (chondroitin sulfate synthase 1) | -0.08
CHSY1 (chondroitin sulfate synthase 1) | 0.47
CHSY1 (chondroitin sulfate synthase 1) | -0.2
CHSY1 (chondroitin sulfate synthase 1) | 0.14
MON1A (MON1 vesicular trafficking associated A) | 0.93
MON1A (MON1 vesicular trafficking associated A) | 2.1
MON1A (MON1 vesicular trafficking associated A) | 2.97 (active)
MON1A (MON1 vesicular trafficking associated A) | 1.05
NKAIN1 (sodium/potassium transporting ATPase interacting 1) | -1.32
NKAIN1 (sodium/potassium transporting ATPase interacting 1) | -0.63
NKAIN1 (sodium/potassium transporting ATPase interacting 1) | -1.6 (active)
NKAIN1 (sodium/potassium transporting ATPase interacting 1) | 0.1
DDX20 (DEAD-box helicase 20) | -0.57
DDX20 (DEAD-box helicase 20) | -0.2
DDX20 (DEAD-box helicase 20) | 0.01
DDX20 (DEAD-box helicase 20) | -0.11
TRIM69 (tripartite motif containing 69) | -0.25
TRIM69 (tripartite motif containing 69) | -1.1
TRIM69 (tripartite motif containing 69) | -0.04
VSIG10 (V-set and immunoglobulin domain containing 10) | -0.7
VSIG10 (V-set and immunoglobulin domain containing 10) | 0.84
VSIG10 (V-set and immunoglobulin domain containing 10) | 0.49
VSIG10 (V-set and immunoglobulin domain containing 10) | 0.33
RAI2 (retinoic acid induced 2) | 0.19
RAI2 (retinoic acid induced 2) | 1.8
RAI2 (retinoic acid induced 2) | 2.62
RAI2 (retinoic acid induced 2) | 2.38
ZMAT3 (zinc finger matrin-type 3) | 0.19
ZMAT3 (zinc finger matrin-type 3) | 0.74
ZMAT3 (zinc finger matrin-type 3) | 2.53
ZMAT3 (zinc finger matrin-type 3) | -0.37
MRPS14 (mitochondrial ribosomal protein S14) | 0.74
MRPS14 (mitochondrial ribosomal protein S14) | 0.44
MRPS14 (mitochondrial ribosomal protein S14) | -0.51
MRPS14 (mitochondrial ribosomal protein S14) | -0.24
CCN6 (cellular communication network factor 6) | 0.16
CCN6 (cellular communication network factor 6) | -0.02
CCN6 (cellular communication network factor 6) | 0.51
CCN6 (cellular communication network factor 6) | 0.82
TF (transferrin) | -1.29
TF (transferrin) | -0.72
TF (transferrin) | -1.09
TF (transferrin) | -0.88
SCCPDH (saccharopine dehydrogenase (putative)) | 0.56
SCCPDH (saccharopine dehydrogenase (putative)) | 4.28 (active)
SCCPDH (saccharopine dehydrogenase (putative)) | 2
SCCPDH (saccharopine dehydrogenase (putative)) | 2.89 (active)
CAPS2 (calcyphosine 2) | 3.55 (active)
CAPS2 (calcyphosine 2) | 5.44 (active)
CAPS2 (calcyphosine 2) | 0.63
CAPS2 (calcyphosine 2) | 0.96
CORT (cortistatin) | 0.31
CORT (cortistatin) | 0.33
CORT (cortistatin) | 0.87
CORT (cortistatin) | -0.55
PRLH (prolactin releasing hormone) | 1.21
PRLH (prolactin releasing hormone) | 1.34
PRLH (prolactin releasing hormone) | 0.65
PRLH (prolactin releasing hormone) | 2.44
UNC5B (unc-5 netrin receptor B) | -0.75
UNC5B (unc-5 netrin receptor B) | 0.67
UNC5B (unc-5 netrin receptor B) | -0.68
UNC5B (unc-5 netrin receptor B) | 1.78
LRRC8D (leucine rich repeat containing 8 VRAC subunit D) | -1.43
LRRC8D (leucine rich repeat containing 8 VRAC subunit D) | -2.18 (active)
LRRC8D (leucine rich repeat containing 8 VRAC subunit D) | -2.09 (active)
CNNM3 | -0.06
CNNM3 | 0.23
CNNM3 | -0.1
CNNM3 | -0.45
PEAK1 (pseudopodium enriched atypical kinase 1) | 1.49
PEAK1 (pseudopodium enriched atypical kinase 1) | 0.32
PEAK1 (pseudopodium enriched atypical kinase 1) | 0.49
PEAK1 (pseudopodium enriched atypical kinase 1) | 2.91 (active)
ADSS1 (adenylosuccinate synthase 1) | 0.33
ADSS1 (adenylosuccinate synthase 1) | 0.73
ADSS1 (adenylosuccinate synthase 1) | 0.47
ADSS1 (adenylosuccinate synthase 1) | 0.84
B3GALT6 (beta-1,3-galactosyltransferase 6) | 0.56
B3GALT6 (beta-1,3-galactosyltransferase 6) | 1.01
B3GALT6 (beta-1,3-galactosyltransferase 6) | -0.8
B3GALT6 (beta-1,3-galactosyltransferase 6) | 1.88
PCF11 (PCF11 cleavage and polyadenylation factor subunit) | -2.09 (active)
PCF11 (PCF11 cleavage and polyadenylation factor subunit) | -1.95 (active)
PCF11 (PCF11 cleavage and polyadenylation factor subunit) | -1.97 (active)
PCF11 (PCF11 cleavage and polyadenylation factor subunit) | -2.01 (active)
AKAP10 (A-kinase anchoring protein 10) | 0.44
AKAP10 (A-kinase anchoring protein 10) | -0.38
AKAP10 (A-kinase anchoring protein 10) | -0.1
AKAP10 (A-kinase anchoring protein 10) | 0.54
NEK2 (NIMA related kinase 2) | -0.46
NEK2 (NIMA related kinase 2) | 0.73
NEK2 (NIMA related kinase 2) | 0.44
NEK2 (NIMA related kinase 2) | -0.63
CCDC66 (coiled-coil domain containing 66) | 2.63
CCDC66 (coiled-coil domain containing 66) | 2.23
CCDC66 (coiled-coil domain containing 66) | 0.19
CCDC66 (coiled-coil domain containing 66) | 3.16 (active)
SPSB2 (splA/ryanodine receptor domain and SOCS box containing 2) | 1.35
SPSB2 (splA/ryanodine receptor domain and SOCS box containing 2) | 2.19
SPSB2 (splA/ryanodine receptor domain and SOCS box containing 2) | 0.7
SPSB2 (splA/ryanodine receptor domain and SOCS box containing 2) | 1.6
C1QL2 (complement C1q like 2) | -0.42
C1QL2 (complement C1q like 2) | -0.14
C1QL2 (complement C1q like 2) | -0.13
C1QL2 (complement C1q like 2) | -0.17
LGALS2 (galectin 2) | -1.08
LGALS2 (galectin 2) | -0.68
LGALS2 (galectin 2) | -0.91
LGALS2 (galectin 2) | -0.64
CSDC2 (cold shock domain containing C2) | 1.85
CSDC2 (cold shock domain containing C2) | 0.76
CSDC2 (cold shock domain containing C2) | 1.6
CSDC2 (cold shock domain containing C2) | 0.64
CHMP5 (charged multivesicular body protein 5) | -0.32
CHMP5 (charged multivesicular body protein 5) | 0.38
CHMP5 (charged multivesicular body protein 5) | 0.17
CHMP5 (charged multivesicular body protein 5) | 1.74

Records above marked active:
Target gene | TNF reporter robust z-score
MON1A (MON1 vesicular trafficking associated A) | 2.97 (active)
NKAIN1 (sodium/potassium transporting ATPase interacting 1) | -1.6 (active)
SCCPDH (saccharopine dehydrogenase (putative)) | 4.28 (active)
SCCPDH (saccharopine dehydrogenase (putative)) | 2.89 (active)
CAPS2 (calcyphosine 2) | 3.55 (active)
CAPS2 (calcyphosine 2) | 5.44 (active)
LRRC8D (leucine rich repeat containing 8 VRAC subunit D) | -2.18 (active)
LRRC8D (leucine rich repeat containing 8 VRAC subunit D) | -2.09 (active)
PEAK1 (pseudopodium enriched atypical kinase 1) | 2.91 (active)
PCF11 (PCF11 cleavage and polyadenylation factor subunit) | -2.09 (active)
PCF11 (PCF11 cleavage and polyadenylation factor subunit) | -1.95 (active)
PCF11 (PCF11 cleavage and polyadenylation factor subunit) | -1.97 (active)
PCF11 (PCF11 cleavage and polyadenylation factor subunit) | -2.01 (active)
CCDC66 (coiled-coil domain containing 66) | 3.16 (active)
